Data as given in US20200209247A1, “METHODS FOR IDENTIFYING MYELOMA TUMOR-INITIATING CELLS AND TARGETED THERAPY” (UNIVERSITY OF IOWA RESEARCH FOUNDATION, priority 2017, published 2020).
Some of these results come from one statement about several compounds together.

Columns and labels:
Assay type in all cases: cell-based, human
[1] = test system: CD24+ and CD24− OCI-MY5 MM cells; assay: Clonogenic (colony) formation assay, response to chemotherapeutic drugs, OCI-MY5; conditions: 2nd passage cells, treated with indicated drugs and doses
[2] = test system: CD24+ and CD24− ARP1 MM cells; assay: Clonogenic (colony) formation assay, response to chemotherapeutic drugs, ARP1; conditions: 2nd passage cells, treated 2 weeks; bortezomib 2 and 10 nM, carfilzomib 2.5 and 12.5 nM, melphalan 2.5 and 12.5 μM
[3] = test system: RPMI-8226, RPMI-8226-R5 (a drug resistant cell line) cells; conditions: treated in vitro for 72 h; flow cytometry
Experimental: Drug resistance is a critical characteristic of TICs^43. To examine whether CD24^+ cells show higher resistance to chemotherapeutic drugs, the soft agar clonogenic formation assay was employed to examine the response to multiple drugs. […] The ARP1 cells from the 1st passage were collected and re-plated in methylcellulose dishes. CD24^+ and CD24^− ARP1 MM cells in the 2nd passage were treated with bortezomib (2 and 10 nM) or carfilzomib (2.5 and 12.5 nM) or melphalan (2.5 and 12.5 μM) for 2 weeks. CD24^+ ARP1 (FIGS. 5A & 5B) or OCI-MY5 (FIGS. 5C & 5D) MM cells were more pronounced resistant (>2.5-fold) than CD24^− ARP1 or OCI-MY5 MM cells. To directly confirm whether CD24^+ population are enriched upon chemotherapy, we treated RPMI-8226, RPMI-8226-R5 (a drug resistant cell line) cells with bortezmib or melphalan in vitro for 72 h (data not shown).

Row | SMILES | resistance of CD24+ versus CD24− OCI-MY5 MM cells [1] | resistance of CD24+ versus CD24− ARP1 MM cells [2] | increase of CD24+ population in chemoresistant residual cells [3]
1 | CC(C)C[C@H](NC(=O)[C@H](CCc1ccccc1)NC(=O)CN1CCOCC1)C(=O)N[C@@H](Cc1ccccc1)C(=O)N[C@@H](CC(C)C)C(=O)[C@@]1(C)CO1 [carfilzomib] | > 2.5 fold | > 2.5 fold | 
2 | CC(C)C[C@H](NC(=O)[C@H](Cc1ccccc1)NC(=O)c1cnccn1)B(O)O [bortezomib] | > 2.5 fold | > 2.5 fold | 2˜100 folds
